Experimental data from article PMC11282044.
Results are given in words; binding and its absence hold for the method and conditions named. For some assays here: In cells and extracts the contact can be indirect. Some entries that bind do so weakly or less than the wild type. Where a sequence is shown, tags or fusion partners need not be part of it. Each block holds one binder with its values, some of them ahead of it.

Experiments:
BD-ROC1 (rice) [1] = molecular target: T1, BD-ROC1 (rice) (UniProt Q6ZAR0); test: two-hybrid; yeast AH109, pGBKT7 bait and pGADT7 prey; liquid beta-galactosidase activity assay (ONPG) after culture at 30 °C for 2 days
T1 sequence: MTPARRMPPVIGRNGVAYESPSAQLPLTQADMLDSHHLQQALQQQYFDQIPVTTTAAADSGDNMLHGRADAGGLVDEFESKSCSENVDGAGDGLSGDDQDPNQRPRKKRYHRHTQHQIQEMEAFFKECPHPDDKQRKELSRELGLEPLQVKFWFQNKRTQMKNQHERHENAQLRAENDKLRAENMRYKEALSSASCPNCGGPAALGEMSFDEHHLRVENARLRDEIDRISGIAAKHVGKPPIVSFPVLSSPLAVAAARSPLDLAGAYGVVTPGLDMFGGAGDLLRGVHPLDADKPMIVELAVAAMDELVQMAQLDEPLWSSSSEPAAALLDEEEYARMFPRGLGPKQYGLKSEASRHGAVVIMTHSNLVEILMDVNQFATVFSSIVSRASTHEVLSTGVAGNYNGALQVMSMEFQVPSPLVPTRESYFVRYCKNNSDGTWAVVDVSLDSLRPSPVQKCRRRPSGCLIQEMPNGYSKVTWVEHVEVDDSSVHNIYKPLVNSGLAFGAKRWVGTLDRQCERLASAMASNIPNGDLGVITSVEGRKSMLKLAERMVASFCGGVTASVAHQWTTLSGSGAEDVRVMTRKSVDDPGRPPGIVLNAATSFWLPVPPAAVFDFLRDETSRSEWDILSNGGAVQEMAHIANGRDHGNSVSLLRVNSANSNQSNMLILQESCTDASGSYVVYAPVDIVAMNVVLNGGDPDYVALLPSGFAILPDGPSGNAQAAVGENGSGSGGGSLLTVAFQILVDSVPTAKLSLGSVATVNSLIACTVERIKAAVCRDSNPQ

BD-ROC1 (rice) [2] = molecular target: T1, BD-ROC1 (rice); test: two-hybrid; yeast AH109, pGBKT7 bait and pGADT7 prey; growth of dilutions on SD/-Leu-Trp-Ade-His without and with 20 mM 3AT, 30 °C, 2 days
ROC1-NYFP (rice) = molecular target: T2, ROC1-NYFP (rice) (UniProt Q6ZAR0); test: split reporter; BiFC with split YFP in N. benthamiana leaves, 2 days after infiltration, confocal microscopy; H2B-mCherry as nuclear marker
T2 sequence: T1 sequence

ROC1-Flag (rice) = molecular target: T3, ROC1-Flag (rice) (UniProt Q6ZAR0); test: co-IP; ROC1-Flag co-expressed with GFP fusions in N. benthamiana; extract in NB1 buffer; anti-FLAG affinity beads, 3 h, 6 washes; blot with anti-GFP
T3 sequence: T1 sequence

binding (BD-ROC1 (rice) [1]): binds
binding (BD-ROC1 (rice) [2]): binds
B1: AD-ROC8 (protein, UniProt Q69T58 1-710)
chain: MDFGDEPEGSDSQRRRKRYHRHTPRQIQQLEAMFKECPHPDENQRAQLSRELGLEPRQIKFWFQNRRTQMKAQHERADNCFLRAENDKIRCENIAIREALKNVICPTCGGPPVGEDYFDEQKLRMENARLKEELDRVSNLTSKYLGRPFTQLPPATPPMTVSSLDLSVGGMGGPSLDLDLLSGGSSGIPFQLPAPVSDMERPMMAEMATRAMDELIRLAQAGDHIWSKSPGGGVSGGDARETLNVDTYDSIFSKPGGSYRAPSINVEGSRESGLVLMSAVALADVFMDTNKWMEFFPSIVSKAHTIDVLVNGMGGRSESLILMYEELHIMTPAVPTREVNFVRYCRQIEQGLWAIADVSVDLQRDAHFGAPPPRSRRLPSGCLIADMANGYSKVTWVEHMEVEEKSPINVLYRDLVLSGAAFGAHRWLAALQRACERYASLVALGVPHHIAGVTPEGKRSMMKLSQRMVNSFCSSLGASQMHQWTTLSGSNEVSVRVTMHRSTDPGQPNGVVLSAATSIWLPVPCDHVFAFVRDENTRSQWDVLSHGNQVQEVSRIPNGSNPGNCISLLRGLNASQNSMLILQESCTDASGSLVVYSPIDIPAANVVMSGEDPSSIPLLPSGFTILPDGRPGSAAGASTSSAGPLAAARGGGGGGAGGGSVVTVAFQILVSSLPSSKLNAESVATVNGLITTTVEQIKAALNCSAHGHHP

binding (ROC1-NYFP (rice)): binds
B2: ROC8-CYFP (protein, UniProt Q69T58 1-710)
chain: B1 chain

binding (BD-ROC1 (rice) [1]): binds
binding (BD-ROC1 (rice) [2]): binds
B3: AD-ROC5 (protein, UniProt Q6EPF0 1-804)
chain: MSFGGLFDGGGGGGMQFPFASGFASSPALSLALDNAGGGIGGRMLGGGAGAGSSAGGAMTRDTEAENDSRSGSDHLDAISAAGEDDVEDAEPSNSRKRKKRYHRHTPQQIQELEALFKECPHPDEKQRAELSRRLSLDARQVKFWFQNRRTQMKTQLERHENALLKQENDKLRAENMTIREAMRSPMCGSCGSPAMLGEVSLEEQHLRIENARLKDELNRVCALATKFLGKPISLLSPPPLLQPHLSLPMPNSSLELAIGGIGGLGSLGTLPGCMNEFAGGVSSPMGTVITPARATGAAIPSLVGNIDRSVFLELAISAMDELVKMAQMDDPLWVPALPGSPSKEVLNFEEYLHSFLPCIGMKPAGYVSEASRESGLVIIDNSLALVETLMDERRWSDMFSCMIAKATVLEEVSTGIAGSRNGALLLMKAELQVLSPLVPIREVTFLRFCKQLAEGAWAVVDVSIDGLVRDHNSGTAPTGGNVKCRRVPSGCVMQDTPNGYCKVTWVEHTEYDEASVHQLYRPLLRSGLAFGARRWLATLQRQCECLAILMSSATVTANDSTAISQEGKRSMLKLARRMTENFCAGVSASSAREWSKLDGATGSIGEDVRVMARKSVSEPGEPPGVVLSAATSVWVPVAPEKLFNFLRDEQLRAEWDILSNGGPMQEMTQIAKGQRDGNSVSLLRASAVSANQSSMLILQETCTDASGSIVVYAPVDIPAMQLVMNGGDSTYVALLPSGFAILPDGPRIGATGYETGGSLLTVAFQILVNNQPTAKLTVESVETVNNLISCTIKKIKTALQCDA

binding (ROC1-Flag (rice)): binds
B4: ROC5-GFP (protein, UniProt Q6EPF0 1-804)
chain: B3 chain

binding (ROC1-NYFP (rice)): binds
B5: ROC5-CYFP (protein, UniProt Q6EPF0 1-804)
chain: B3 chain

binding (ROC1-NYFP (rice)): binds
B6: ROC1-CYFP (protein, UniProt Q6ZAR0 1-784)
chain: T1 sequence

binding (BD-ROC1 (rice) [1]): binds weakly
binding (BD-ROC1 (rice) [2]): binds weakly
B7: AD-ROC1 (protein, UniProt Q6ZAR0 1-784)
chain: T1 sequence

binding (ROC1-Flag (rice)): binds
B8: ROC1-GFP (protein, UniProt Q6ZAR0 1-784)
chain: T1 sequence
